Source: publication PMC4006922
No constants are given. Whether binding was seen depends on the method and setting. Binding seen in cells or lysates may run through a third protein. Some entries that bind do so weakly or less than the wild type.

Sequences of proteins named here, by UniProt entry; tags and fusion partners are left off.
UniProt P42336: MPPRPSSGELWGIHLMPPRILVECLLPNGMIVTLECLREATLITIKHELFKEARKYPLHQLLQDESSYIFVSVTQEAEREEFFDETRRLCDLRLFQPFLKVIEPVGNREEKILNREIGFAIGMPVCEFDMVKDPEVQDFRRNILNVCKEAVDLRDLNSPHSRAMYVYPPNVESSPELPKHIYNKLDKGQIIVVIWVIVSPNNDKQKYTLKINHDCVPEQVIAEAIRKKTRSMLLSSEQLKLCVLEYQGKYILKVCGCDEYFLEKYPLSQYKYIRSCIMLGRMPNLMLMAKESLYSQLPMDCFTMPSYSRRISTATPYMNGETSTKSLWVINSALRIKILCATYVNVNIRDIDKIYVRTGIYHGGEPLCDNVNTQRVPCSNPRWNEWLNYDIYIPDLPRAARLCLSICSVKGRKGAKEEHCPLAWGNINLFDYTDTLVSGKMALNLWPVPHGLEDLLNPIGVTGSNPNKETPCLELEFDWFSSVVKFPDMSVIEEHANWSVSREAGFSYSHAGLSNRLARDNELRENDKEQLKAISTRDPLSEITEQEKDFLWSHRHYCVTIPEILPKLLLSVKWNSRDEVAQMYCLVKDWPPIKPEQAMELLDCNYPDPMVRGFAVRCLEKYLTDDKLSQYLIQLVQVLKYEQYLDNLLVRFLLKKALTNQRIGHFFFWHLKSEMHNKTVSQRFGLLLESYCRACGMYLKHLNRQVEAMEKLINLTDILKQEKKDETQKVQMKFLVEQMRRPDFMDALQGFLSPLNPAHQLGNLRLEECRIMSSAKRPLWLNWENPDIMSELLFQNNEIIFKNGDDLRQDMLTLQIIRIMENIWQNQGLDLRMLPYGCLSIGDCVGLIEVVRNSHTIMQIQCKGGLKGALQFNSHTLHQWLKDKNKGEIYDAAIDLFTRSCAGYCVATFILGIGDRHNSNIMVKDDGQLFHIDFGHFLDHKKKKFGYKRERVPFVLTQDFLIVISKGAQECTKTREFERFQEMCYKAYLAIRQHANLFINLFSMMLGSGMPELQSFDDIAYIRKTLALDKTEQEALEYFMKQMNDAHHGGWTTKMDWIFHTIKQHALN
UniProt P27986: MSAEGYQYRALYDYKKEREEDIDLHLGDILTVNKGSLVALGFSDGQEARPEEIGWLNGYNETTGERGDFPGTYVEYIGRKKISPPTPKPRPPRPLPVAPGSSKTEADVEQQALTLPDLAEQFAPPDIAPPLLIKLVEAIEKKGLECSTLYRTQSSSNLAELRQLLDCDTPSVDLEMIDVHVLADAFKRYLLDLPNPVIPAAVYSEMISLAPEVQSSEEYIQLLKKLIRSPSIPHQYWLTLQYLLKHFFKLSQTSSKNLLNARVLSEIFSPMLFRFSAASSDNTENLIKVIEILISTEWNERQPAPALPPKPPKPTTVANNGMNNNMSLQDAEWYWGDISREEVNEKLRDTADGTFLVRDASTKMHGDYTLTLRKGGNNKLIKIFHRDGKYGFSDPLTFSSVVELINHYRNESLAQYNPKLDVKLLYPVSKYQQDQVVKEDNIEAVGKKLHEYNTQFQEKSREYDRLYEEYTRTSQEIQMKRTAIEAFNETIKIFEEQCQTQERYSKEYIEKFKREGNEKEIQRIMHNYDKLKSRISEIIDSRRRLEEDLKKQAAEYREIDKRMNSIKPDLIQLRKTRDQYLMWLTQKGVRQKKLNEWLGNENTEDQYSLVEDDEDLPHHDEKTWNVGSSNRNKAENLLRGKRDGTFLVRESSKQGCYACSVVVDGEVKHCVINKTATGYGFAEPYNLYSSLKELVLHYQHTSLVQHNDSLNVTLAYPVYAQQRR
UniProt O00459: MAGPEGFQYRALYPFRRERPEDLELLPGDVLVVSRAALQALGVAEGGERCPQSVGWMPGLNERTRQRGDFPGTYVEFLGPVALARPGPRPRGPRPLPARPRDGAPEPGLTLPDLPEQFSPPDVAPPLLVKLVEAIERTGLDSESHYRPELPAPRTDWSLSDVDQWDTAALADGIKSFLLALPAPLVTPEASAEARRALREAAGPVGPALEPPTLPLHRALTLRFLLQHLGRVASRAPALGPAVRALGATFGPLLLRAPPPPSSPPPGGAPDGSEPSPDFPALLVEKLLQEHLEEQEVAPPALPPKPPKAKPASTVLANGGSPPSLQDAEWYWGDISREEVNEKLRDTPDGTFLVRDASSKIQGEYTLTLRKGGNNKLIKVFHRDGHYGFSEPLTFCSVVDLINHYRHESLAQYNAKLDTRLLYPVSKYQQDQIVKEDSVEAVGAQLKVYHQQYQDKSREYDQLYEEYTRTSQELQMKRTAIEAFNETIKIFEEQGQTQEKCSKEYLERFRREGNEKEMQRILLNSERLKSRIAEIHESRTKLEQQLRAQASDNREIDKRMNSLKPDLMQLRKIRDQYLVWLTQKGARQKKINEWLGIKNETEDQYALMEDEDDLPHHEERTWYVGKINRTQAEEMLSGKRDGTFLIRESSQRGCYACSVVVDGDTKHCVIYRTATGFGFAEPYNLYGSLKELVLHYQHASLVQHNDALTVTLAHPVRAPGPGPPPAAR

Key:
[1] = biological target: PI3K catalytic subunit p110α (endogenous) (human (endogenous in MCF10A)) (UniProt P42336); assay: co-IP; extracts (300 µg of protein, RIPA buffer) of stably transduced MCF10A lines (vector, wtORF1, V125A, T123D, KI) immunoprecipitated with p110α antibody on protein G-sepharose; immunoblot
[2] = biological target: PI3K regulatory subunit p85α (endogenous) (human (endogenous in HeLa and MCF10A)) (UniProt P27986); assay: co-IP; lysates of vector, wtORF1, V125A and T123D MCF10A lines immunoprecipitated with p85α or p85β antibody; data not shown
[3] = biological target: PI3K regulatory subunit p85β (endogenous) (human (endogenous in HeLa and MCF10A)) (UniProt O00459); assay: as above

Measured: binding

B1: wild-type (wt) Ad9 E4-ORF1 protein expressed in MCF10A cells (protein, UniProt P89079 1-125)
chain: MAESLYAFIDSPGGIAPVQEGTSNRYTFFCPESFHIPPHGVVLLHLKVSVLVPTGYQGRFMALNDYHARDILTQSDVIFAGRRQELTVLLFNHTDRFLYVRKGHPVGTLLLERVIFPSVKIATLV
binds: all assays above
